Assay results taken from patent US20180044415A1.
Positions count from the first letter of the chain named. Results are given in words; binding and its absence hold for the method and conditions named. Some binding calls cover weakened binding; strength is not graded here.

Amino acid sequences for entries named in this document (tags omitted). A change or cut given only in a name is not applied to a line headed by its entry.
UniProt Q9NYJ7: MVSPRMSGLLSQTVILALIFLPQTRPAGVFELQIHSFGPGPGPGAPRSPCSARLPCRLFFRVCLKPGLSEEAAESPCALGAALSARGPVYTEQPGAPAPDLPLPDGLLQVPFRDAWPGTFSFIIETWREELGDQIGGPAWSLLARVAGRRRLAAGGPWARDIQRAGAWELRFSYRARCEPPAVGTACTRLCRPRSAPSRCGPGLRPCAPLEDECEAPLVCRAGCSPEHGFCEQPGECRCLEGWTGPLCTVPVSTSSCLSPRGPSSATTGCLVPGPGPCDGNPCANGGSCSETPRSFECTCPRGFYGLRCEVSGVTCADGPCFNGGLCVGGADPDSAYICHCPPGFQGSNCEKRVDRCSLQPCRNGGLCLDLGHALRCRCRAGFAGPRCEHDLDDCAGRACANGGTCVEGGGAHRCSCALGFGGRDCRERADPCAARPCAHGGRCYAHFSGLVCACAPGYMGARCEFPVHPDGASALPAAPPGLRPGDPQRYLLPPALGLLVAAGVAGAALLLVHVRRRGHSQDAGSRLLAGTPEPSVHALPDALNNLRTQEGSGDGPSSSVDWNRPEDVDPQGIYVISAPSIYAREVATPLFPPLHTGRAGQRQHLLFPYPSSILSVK

B1: chimeric anti-DLL3 antibody SC16.56 (antibody, human IgG1, kappa, V domains shown)
VH: QIQLVQSGPELKKPGETVKISCKASGYTFTNYGMNWVKQAPGKGLKWMAWINTYTGEPTYADDFKGRFAFSLETSASTASLQIINLKNEDTATYFCARIGDSSPSDYWGQGTTLTVSS
VL: SIVMTQTPKFLLVSAGDRVTITCKASQSVSNDVVWYQQKPGQSPKLLIYYASNRYTGVPDRFAGSGYGTDFSFTISTVQAEDLAVYFCQQDYTSPWTFGGGTKLEIRR
B2: chimeric anti-DLL3 antibody SC16.34 (antibody, human IgG1, kappa, V domains shown)
VH: B1 VH with K13R, A49G, E57D, S80Y, I84N, D101G, S102N, T113S
VL: B1 VL with V34A, T56S, A63T, S72T, T93S, R107K
B3: chimeric anti-DLL3 antibody SC16.25 (antibody, human IgG1, kappa, V domains shown)
VH: QVTLKESGPGILQPSQTLSLTCSFSGFSLSTSGMGVGWIRQPSGEGLEWLTDIWWDDNKYYNPSLKSRLTISKDTSSNQVFLNITSVDTADTATYYCARRVNYYYDPYYAMDYWGQGTSVTVSS
VL: QIVLTQSPAIMSASPGEKVTMTCSASSSVSYMHWYQQKSGTSPKRWIYDSSKLASGVPARFSGSGSGTSYSLTISSMEAEDAATYYCQQWSSNPLTFGAGTKLELKR
B4: chimeric anti-DLL3 antibody SC16.15 (antibody, human IgG1, kappa, V domains shown)
VH: QVQLQQSGAELAKPGASVKMSCKASGYTFTRYWIHWIKQRPGQGLEWIGYINPTTVYTEFNQNFKDKATLTADKSSTTASMQLSSLTSEDSAVYYCARGGSNFFDYWGQGTTLTVSS
VL: DIQMTQSPASLAASVGETVAITCRASENIYYNLAWYQQKQGKSPQLLIYTANSLEDGVPSRFSGSGSGTQYSLKINSMQPEDSATYFCKQAYDVPPTFGGGTKLEIKR
B5: hSC16.15 (antibody, human IgG1, kappa, V domains shown)
VH: QVQLVQSGAEVKKPGASVKVSCKASGYTFTRYWIHWIRQAPGQGLEWMGYINPTTVYTEFNQNFKDRVTMTRDTSTSTVYMELSSLRSEDTAVYYCARGGSNFFDYWGQGTTVTVSS
VL: AIQLTQSPSSLSASVGDRVTITCRASENIYYNLAWYQQKPGKAPKLLIYTANSLEDGVPSRFSGSGSGTDFTLTISSLQPEDFATYFCKQAYDVPPTFGGGTKLEIKR
B6: hSC16.34 (antibody, human IgG1, kappa, V domains shown)
VH: QVQLVQSGAEVKKPGASVKVSCKASGYTFTNYGMNWVRQAPGQRLEWMGWINTYTGDPTYADDFKGRVTITRDTSASTAYMELSSLRSEDTAVYYCARIGGNSPSDYWGQGTTVTVSS
VL: DIQMTQSPSSLSASVGDRVTITCKASQSVSNDVAWYQQKPGKVPKLLIYYASNRYSGVPSRFSGSGSGTDFTLTISSLQPEDVATYFCQQDYSSPWTFGGGTKVEIKR
B7: hSC16.56 (antibody, human IgG1, kappa, V domains shown)
VH: B6 VH with R44G, D57E, I70M, R72T, A76T, S84R, E89D, G101D, N102S, T113L
VL: EIVMTQSPATLSVSPGERATLSCKASQSVSNDVVWYQQKPGQAPRLLIYYASNRYTGIPARFSGSGSGTEFTLTISSLQSEDFAVYYCQQDYTSPWTFGQGTKLEIKR
B8: hSC16.13 (antibody, human IgG1, kappa, V domains shown)
VH: QITLKESGPTLVKPTQTLTLTCTFSGFSLSTSGMGVGWIRQPPGKALEWLAHIWWDDVKRYSPSLKSRLTITKDTSKNQVVLTMTNMDPVDTATYYCARIVSFDNDVVSAMDYWGQGTLVTVSS
VL: DIQMTQSPSSLSASVGDRVTITCSASSSVSYMYWYQQKPGKAPKLLIYLTSNLASGVPSRFSGSGSGTDFTLTISSLQPEDFATYYCQQWRSNPFTFGQGTKLEIKR
B9: hSC16.25 (antibody, human IgG1, kappa, V domains shown)
VH: QITLKESGPTLVKPTQTLTLTCTFSGFSLSTSGMGVGWIRQPPGKALEWLTDIWWDDNKYYNPSLKSRLTITKDTSKNQVVLTMTNMDPVDTATYYCARRVNYYYDPYYAMDYWGQGTLVTVSS
VL: EIVLTQSPDFQSVTPKEKVTITCSASSSVSYMHWYQQKPDQSPKLLIKDSSKLASGVPSRFSGSGSGTDFTLTINSLEAEDAATYYCQQWSSNPLTFGQGTKLEIKR
B10: SC16.31 (antibody, V domains shown)
VH: EVQLQQSGPELVKPGASVKISCKASGYSFSRFYMHWVKQSPENSLEWIGEINPSTGGTSYNQKFKGKATLTVDKSSSTAYMQLKSLTSEESAVYYCTRGYGSNWYFDVWGAGTTVTVST
VL: DIVLTQSPLSLPVNIGDQASISCKSTKSLLNSDGFTYLDWYLQRPGQSPQFLIYLVSNRFSGVPDRFSGSGSGTDFTLKISRVEAEDLGVYYCFQSNYLPLTFGAGTKLELR

Molecular target: DLL3 protein (surface plasmon resonance, Example 3) (Homo sapiens (Human)) (UniProt Q9NYJ7)
Experiment: surface plasmon resonance

binding, binds:
B1
B2
B3
B4
B5
B6
B7
B8
B9

Molecular target: human DLL3 (immobilized human DLL3 or h293-hDLL3 cells) (human) (UniProt Q9NYJ7)
Experiment: hybridoma screening on immobilized human DLL3 or on h293-hDLL3 cells

binding, binds:
B10
